{"sequences": {"note": "Chains of the proteins cited; added tags and fusions are not shown. Lines headed by an entry give the natural chain unless they say otherwise; changes in a name come on top.", "UniProt P61586": "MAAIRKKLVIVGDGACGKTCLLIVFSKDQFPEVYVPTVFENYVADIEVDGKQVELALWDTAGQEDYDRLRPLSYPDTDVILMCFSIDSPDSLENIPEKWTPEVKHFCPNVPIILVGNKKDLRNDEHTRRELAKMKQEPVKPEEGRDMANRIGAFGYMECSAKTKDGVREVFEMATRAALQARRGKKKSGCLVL"}, "source": "paper PMC10802709", "binders": {"B1": {"name": "anillin (protein, UniProt Q9NQW6 1-1124)", "chain": "MDPFTEKLLERTRARRENLQRKMAERPTAAPRSMTHAKRARQPLSEASNQQPLSGGEEKSCTKPSPSKKRCSDNTEVEVSNLENKQPVESTSAKSCSPSPVSPQVQPQAADTISDSVAVPASLLGMRRGLNSRLEATAASSVKTRMQKLAEQRRRWDNDDMTDDIPESSLFSPMPSEEKAASPPRPLLSNASATPVGRRGRLANLAATICSWEDDVNHSFAKQNSVQEQPGTACLSKFSSASGASARINSSSVKQEATFCSQRDGDASLNKALSSSADDASLVNASISSSVKATSPVKSTTSITDAKSCEGQNPELLPKTPISPLKTGVSKPIVKSTLSQTVPSKGELSREICLQSQSKDKSTTPGGTGIKPFLERFGERCQEHSKESPARSTPHRTPIITPNTKAIQERLFKQDTSSSTTHLAQQLKQERQKELACLRGRFDKGNIWSAEKGGNSKSKQLETKQETHCQSTPLKKHQGVSKTQSLPVTEKVTENQIPAKNSSTEPKGFTECEMTKSSPLKITLFLEEDKSLKVTSDPKVEQKIEVIREIEMSVDDDDINSSKVINDLFSDVLEEGELDMEKSQEEMDQALAESSEEQEDALNISSMSLLAPLAQTVGVVSPESLVSTPRLELKDTSRSDESPKPGKFQRTRVPRAESGDSLGSEDRDLLYSIDAYRSQRFKETERPSIKQVIVRKEDVTSKLDEKNNAFPCQVNIKQKMQELNNEINMQQTVIYQASQALNCCVDEEHGKGSLEEAEAERLLLIATGKRTLLIDELNKLKNEGPQRKNKASPQSEFMPSKGSVTLSEIRLPLKADFVCSTVQKPDAANYYYLIILKAGAENMVATPLASTSNSLNGDALTFTTTFTLQDVSNDFEINIEVYSLVQKKDPSGLDKKKKTSKSKAITPKRLLTSITTKSNIHSSVMASPGGLSAVRTSNFALVGSYTLSLSSVGNTKFVLDKVPFLSSLEGHIYLKIKCQVNSSVEERGFLTIFEDVSGFGAWHRRWCVLSGNCISYWTYPDDEKRKNPIGRINLANCTSRQIEPANREFCARRNTFELITVRPQREDDRETLVSQCRDTLCVTKNWLSADTKEERDLWMQKLNQVLVDIRLWQPDACYKPIGKP"}}, "molecular_target": "GFP-RhoA Q63L (constitutively active form of RhoA) (UniProt P61586)", "assay": "co-IP; GFP-trap magnetic agarose beads in nuclei-free cytoplasmic extract (digitonin permeabilization, 2 mM MgCl2, 5 mM GTP) of HT1080 cells stably expressing GFP-RhoA Q63L, serum-starved then released 4 h into S phase; 1.5 h at 4°C; washes with TTBS, 0.05% NP40; blot with anti-anillin; binding control magnetic agarose as control", "note": "No constants are given. Whether binding was seen depends on the method and setting. Binding seen in cells or lysates may run through a third protein. Some entries that bind do so weakly or less than the wild type."}
{"binder": "B1", "values": [{"measurement": "binding", "value": "binds"}]}
